Binding data for six molecules are collected here from paper doi:10.1101/2022.07.28.501803 (bioRxiv, 2022).

Amino acid sequences for entries named in this document (tags omitted).
UniProt P32598: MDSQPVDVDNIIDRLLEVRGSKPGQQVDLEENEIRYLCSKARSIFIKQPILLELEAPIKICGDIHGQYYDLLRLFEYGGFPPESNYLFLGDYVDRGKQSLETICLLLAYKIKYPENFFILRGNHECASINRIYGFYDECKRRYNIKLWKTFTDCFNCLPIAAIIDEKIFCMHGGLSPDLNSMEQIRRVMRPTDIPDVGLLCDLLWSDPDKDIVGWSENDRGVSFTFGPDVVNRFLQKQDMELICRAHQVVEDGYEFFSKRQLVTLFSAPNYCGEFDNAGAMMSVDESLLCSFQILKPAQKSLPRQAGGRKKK
UniProt P53538: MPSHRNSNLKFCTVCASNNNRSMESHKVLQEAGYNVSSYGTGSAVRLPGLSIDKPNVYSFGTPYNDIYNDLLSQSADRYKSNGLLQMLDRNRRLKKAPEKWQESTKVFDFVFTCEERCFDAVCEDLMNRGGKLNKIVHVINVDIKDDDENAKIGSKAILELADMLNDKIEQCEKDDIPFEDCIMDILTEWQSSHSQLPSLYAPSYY

These are yes or no findings as the source states them, for the method shown. Some binding calls cover weakened binding; strength is not graded here. For some assays here: Tags and fused reporters may be left off the sequences shown.

Test in all cases: co-purification
In assay [1] the target is T1, Ref2-ΔIDR-SII (Ref2 with residues 230-338 deleted) (yeast) (UniProt P42073).
T1 sequence: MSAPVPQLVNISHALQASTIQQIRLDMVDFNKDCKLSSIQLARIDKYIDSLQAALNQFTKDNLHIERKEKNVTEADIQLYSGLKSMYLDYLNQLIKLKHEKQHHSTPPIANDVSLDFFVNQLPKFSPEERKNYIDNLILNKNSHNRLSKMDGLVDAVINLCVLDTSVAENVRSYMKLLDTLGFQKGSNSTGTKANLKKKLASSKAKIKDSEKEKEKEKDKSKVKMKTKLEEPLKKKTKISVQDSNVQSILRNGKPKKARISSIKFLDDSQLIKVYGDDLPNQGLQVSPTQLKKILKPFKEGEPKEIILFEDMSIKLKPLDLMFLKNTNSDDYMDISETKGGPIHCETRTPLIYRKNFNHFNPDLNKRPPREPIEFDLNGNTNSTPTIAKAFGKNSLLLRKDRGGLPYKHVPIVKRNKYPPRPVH

In assay [2] the target is T2, Ref2-StrepII-tag (Ref2-SII) (yeast) (UniProt P42073).
T2 sequence: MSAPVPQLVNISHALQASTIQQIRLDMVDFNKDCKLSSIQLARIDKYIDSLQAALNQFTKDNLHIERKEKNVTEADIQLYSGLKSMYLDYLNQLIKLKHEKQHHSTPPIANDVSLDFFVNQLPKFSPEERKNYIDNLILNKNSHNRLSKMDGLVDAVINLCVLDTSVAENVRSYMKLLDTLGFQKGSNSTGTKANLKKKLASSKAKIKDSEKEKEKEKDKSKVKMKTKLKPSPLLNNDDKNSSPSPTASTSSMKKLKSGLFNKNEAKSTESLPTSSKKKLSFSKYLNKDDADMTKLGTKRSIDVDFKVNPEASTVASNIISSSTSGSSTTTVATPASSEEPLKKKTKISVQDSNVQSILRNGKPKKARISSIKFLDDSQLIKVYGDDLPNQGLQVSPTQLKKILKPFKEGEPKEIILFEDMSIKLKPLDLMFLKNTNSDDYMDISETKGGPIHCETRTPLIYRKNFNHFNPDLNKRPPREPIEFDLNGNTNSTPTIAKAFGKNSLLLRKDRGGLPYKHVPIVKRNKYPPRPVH

In assay [3] the target is T3, Pta1-SII (yeast) (UniProt Q01329).
T3 sequence: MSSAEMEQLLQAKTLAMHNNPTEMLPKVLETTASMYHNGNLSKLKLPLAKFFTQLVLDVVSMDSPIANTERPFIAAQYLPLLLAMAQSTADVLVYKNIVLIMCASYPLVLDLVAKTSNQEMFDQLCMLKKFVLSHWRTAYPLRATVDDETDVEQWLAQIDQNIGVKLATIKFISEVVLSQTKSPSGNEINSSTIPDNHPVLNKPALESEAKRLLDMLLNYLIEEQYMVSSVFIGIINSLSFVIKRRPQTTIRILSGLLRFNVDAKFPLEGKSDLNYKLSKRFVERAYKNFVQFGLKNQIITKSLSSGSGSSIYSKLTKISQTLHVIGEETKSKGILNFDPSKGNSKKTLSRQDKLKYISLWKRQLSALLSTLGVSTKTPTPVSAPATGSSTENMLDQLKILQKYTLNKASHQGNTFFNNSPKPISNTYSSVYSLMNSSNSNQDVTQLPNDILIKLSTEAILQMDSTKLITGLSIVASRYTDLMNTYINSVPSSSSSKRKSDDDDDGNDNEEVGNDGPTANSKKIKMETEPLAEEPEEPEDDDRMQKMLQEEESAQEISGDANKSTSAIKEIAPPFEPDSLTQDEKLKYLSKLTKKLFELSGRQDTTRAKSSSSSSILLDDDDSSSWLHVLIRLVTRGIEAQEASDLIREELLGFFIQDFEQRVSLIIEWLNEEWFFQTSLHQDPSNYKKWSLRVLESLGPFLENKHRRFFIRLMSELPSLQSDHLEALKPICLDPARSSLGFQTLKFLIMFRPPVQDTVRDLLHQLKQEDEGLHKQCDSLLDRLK

For “Glc7 (co-expressed in insect cells) (from UniProt P32598 1-312) (enzyme)”, the binding result in assay [1] and in assay [2] was “binds” throughout.

Regarding “Ssu72 (from UniProt P53538 1-206) (enzyme)”, the binding result in assay [2] and in assay [3] was “binds” in each case.

B1: Pta1 (untagged, in APT) (protein, UniProt Q01329 1-785)
chain: T3 sequence
On to B1, for which the binding result in assay [2] was “binds”.

B2: Pti1 (protein, UniProt P39927 1-425)
chain: MTDPRRRTGRHFLTPENLSSTLQITNLPPEWNQDIITSVVAGSGPVIDIKAKNDPRTGKLTGVLFDYLTSKDCKRAWEILNRIENFPVKIEQIIPPNYKDHLRETANKNSQKQVLQLNRDSYPFEAGLELPFEMVTEVPIPRRPPPPQAANNTNSVSNNTNIQFPDILSKASKHLPSFQDGSIIAPDKISQNLSKIPPLQLIEIISNLKILSNQENIQKSQLESFLDTNSDITISVTQALLEMGFIDYSVVTKVLKSQVGEAPSLLSSNNTSNSNTPVSVIRNNTPLHVPSNEVSNNPNNMPLNVAMPMPMSTPPFIPLPLQQQPFGFAPPGPFMPPAQGPSMGQPVLANQLGQVQQQNISSTEGPSNANKANDSGTINMAKLQLLPENQQDMIKQVLTLTPAQIQSLPSDQQLMVENFRKEYII
Consider B2, for which the binding result in assay [2] and in assay [3] was “binds” each time.

B3: Swd2 (protein, UniProt P36104 1-329)
chain: MTTVSINKPNLLKFKHVKSFQPQEKDCGPVTSLNFDDNGQFLLTSSSNDTMQLYSATNCKFLDTIASKKYGCHSAIFTHAQNECIYSSTMKNFDIKYLNLETNQYLRYFSGHGALVNDLKMNPVNDTFLSSSYDESVRLWDLKISKPQVIIPSLVPNCIAYDPSGLVFALGNPENFEIGLYNLKKIQEGPFLIIKINDATFSQWNKLEFSNNGKYLLVGSSIGKHLIFDAFTGQQLFELIGTRAFPMREFLDSGSACFTPDGEFVLGTDYDGRIAIWNHSDSISNKVLRPQGFIPCVSHETCPRSIAFNPKYSMFVTADETVDFYVYDE
Take B3: the binding result in assay [1] and in assay [2] was “binds” throughout.

B4: Syc1 (protein, UniProt Q08553 1-188)
chain: MDLPKDKSDRTHQRINLNNSGTDRTNDLYLHIVQTFGCIETTATENATKLLMLGDVEVEISASSVSIEWTQKSMISQTIADSIVIMIIGLCASDKNVLSESELKERNHNVWKIQELQNLFREQFGDSFSIDEGIGKKENVKNGSVTIGKSKATIDFSTMKLIDCNSNPLKGRVESILSIGQKLTTPLC
B4: the binding entry in assay [2] and in assay [3] was “binds” throughout.
